Drawing on paper PMC5103180, this text covers binding for 1 substance.

The target in the experiment is T1, human band 4.2 (human) (UniProt P16452).
T1 sequence: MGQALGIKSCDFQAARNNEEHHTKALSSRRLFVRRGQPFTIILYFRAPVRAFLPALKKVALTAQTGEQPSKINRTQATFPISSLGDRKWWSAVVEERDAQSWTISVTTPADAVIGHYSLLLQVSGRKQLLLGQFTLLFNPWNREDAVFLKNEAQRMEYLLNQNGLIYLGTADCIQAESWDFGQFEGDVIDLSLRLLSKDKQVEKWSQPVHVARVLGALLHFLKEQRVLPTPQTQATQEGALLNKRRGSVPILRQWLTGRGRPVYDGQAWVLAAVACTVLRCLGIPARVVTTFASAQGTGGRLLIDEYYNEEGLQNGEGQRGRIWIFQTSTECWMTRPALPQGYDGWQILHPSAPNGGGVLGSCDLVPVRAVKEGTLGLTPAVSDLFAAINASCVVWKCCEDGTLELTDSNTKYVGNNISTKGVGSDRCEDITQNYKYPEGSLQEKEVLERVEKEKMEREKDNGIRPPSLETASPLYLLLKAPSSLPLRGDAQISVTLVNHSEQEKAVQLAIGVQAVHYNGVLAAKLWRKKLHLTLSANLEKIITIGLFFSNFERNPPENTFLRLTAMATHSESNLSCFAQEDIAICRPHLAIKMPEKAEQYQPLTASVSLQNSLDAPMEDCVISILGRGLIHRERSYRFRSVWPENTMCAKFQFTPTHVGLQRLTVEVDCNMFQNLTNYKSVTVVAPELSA
The experiment can be described thus: co-IP; reverse Co-IP from 3D7 wild-type parasite lysate, cross-linked in 1% formaldehyde; α-band 4.2 antibodies cross-linked with BS3 to Dynabeads Protein G; Western blot with α-PFE1605w. For orientation: A western blot detects proteins with antibodies after separation by electrophoresis.

No constants are given. Whether binding was seen depends on the method and setting. Binding seen in cells or lysates may run through a third protein. Binding can be weak; no strength is given.

PFE1605w (endogenous, untagged): the binding entry was “binds”.
